Data taken from the supplement of paper PMC10849652.
Some of the results follow.

By UniProt entry, the sequences of proteins in these tests, tags left out. Where a name states a change or a piece, a line headed by the entry shows the natural chain unless it says otherwise.
UniProt Q9BT09: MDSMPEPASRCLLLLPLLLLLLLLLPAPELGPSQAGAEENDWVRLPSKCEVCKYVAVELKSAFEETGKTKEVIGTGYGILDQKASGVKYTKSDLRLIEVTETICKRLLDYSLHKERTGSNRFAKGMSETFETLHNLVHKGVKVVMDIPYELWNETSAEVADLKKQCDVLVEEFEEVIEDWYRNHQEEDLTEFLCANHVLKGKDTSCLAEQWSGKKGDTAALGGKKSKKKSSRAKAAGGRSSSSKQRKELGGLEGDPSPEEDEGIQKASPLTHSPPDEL
UniProt Q9UFF9, whole entry, looked up: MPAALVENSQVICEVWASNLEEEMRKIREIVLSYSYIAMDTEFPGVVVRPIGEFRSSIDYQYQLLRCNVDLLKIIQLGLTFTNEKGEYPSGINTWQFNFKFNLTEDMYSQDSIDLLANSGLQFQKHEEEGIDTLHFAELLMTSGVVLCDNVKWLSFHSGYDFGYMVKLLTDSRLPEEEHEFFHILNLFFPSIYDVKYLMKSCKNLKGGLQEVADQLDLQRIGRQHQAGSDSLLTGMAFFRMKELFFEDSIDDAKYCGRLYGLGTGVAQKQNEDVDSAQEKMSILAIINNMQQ
UniProt O14579: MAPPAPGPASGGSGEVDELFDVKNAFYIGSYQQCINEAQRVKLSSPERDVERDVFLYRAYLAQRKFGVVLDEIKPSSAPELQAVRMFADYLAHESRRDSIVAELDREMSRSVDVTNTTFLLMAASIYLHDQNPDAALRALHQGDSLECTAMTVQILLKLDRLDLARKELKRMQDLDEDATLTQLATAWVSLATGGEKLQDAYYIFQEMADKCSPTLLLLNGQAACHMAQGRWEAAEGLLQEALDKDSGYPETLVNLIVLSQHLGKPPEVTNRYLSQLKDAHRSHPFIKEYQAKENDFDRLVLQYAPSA
UniProt P57737: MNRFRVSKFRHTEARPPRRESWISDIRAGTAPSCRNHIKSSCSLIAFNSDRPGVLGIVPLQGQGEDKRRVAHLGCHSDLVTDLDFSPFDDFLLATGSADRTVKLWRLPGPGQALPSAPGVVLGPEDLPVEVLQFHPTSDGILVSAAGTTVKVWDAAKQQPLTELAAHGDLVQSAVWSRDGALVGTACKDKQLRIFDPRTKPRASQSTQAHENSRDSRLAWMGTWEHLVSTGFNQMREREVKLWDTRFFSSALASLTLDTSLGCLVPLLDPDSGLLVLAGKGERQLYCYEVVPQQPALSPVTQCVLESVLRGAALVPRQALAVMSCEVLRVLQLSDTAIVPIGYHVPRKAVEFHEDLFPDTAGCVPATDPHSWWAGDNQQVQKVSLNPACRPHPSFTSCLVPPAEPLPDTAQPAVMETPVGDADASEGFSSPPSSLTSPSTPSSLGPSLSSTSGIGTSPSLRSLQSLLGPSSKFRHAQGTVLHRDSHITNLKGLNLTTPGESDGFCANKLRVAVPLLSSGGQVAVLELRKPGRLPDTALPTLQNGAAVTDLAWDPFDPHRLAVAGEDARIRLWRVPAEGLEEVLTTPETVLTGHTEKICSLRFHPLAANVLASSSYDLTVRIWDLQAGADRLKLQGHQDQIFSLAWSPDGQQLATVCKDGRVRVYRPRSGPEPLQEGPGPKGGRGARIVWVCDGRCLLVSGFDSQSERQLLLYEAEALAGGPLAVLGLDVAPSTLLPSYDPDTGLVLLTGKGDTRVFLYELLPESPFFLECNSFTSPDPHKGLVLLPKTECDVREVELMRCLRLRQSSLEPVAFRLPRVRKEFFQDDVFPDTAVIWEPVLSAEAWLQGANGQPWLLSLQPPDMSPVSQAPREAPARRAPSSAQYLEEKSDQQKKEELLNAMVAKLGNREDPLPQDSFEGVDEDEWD
UniProt Q99627: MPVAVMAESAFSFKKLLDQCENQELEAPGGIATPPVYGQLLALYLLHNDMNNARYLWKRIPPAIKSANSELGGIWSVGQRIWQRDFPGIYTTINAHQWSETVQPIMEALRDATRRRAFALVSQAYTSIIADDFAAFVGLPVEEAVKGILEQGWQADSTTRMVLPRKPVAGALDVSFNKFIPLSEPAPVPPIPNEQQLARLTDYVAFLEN
UniProt Q8NE01: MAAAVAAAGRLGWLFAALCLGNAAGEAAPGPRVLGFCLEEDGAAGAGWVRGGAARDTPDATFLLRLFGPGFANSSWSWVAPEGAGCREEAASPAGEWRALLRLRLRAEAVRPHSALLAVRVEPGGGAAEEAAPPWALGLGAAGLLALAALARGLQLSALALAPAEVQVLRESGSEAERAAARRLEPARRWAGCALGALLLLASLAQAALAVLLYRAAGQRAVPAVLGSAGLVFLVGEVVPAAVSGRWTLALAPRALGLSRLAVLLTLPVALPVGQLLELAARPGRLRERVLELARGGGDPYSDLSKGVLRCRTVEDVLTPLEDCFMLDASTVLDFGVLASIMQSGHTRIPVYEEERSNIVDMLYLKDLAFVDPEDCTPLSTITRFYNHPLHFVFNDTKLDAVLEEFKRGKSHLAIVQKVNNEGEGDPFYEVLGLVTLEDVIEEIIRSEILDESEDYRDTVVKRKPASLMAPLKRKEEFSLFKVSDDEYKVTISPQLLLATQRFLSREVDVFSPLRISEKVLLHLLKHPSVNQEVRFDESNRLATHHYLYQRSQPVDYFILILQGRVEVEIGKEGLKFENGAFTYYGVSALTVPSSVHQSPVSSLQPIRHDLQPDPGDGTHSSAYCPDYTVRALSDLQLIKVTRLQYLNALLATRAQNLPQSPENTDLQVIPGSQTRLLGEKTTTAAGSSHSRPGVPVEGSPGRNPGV
UniProt O75131: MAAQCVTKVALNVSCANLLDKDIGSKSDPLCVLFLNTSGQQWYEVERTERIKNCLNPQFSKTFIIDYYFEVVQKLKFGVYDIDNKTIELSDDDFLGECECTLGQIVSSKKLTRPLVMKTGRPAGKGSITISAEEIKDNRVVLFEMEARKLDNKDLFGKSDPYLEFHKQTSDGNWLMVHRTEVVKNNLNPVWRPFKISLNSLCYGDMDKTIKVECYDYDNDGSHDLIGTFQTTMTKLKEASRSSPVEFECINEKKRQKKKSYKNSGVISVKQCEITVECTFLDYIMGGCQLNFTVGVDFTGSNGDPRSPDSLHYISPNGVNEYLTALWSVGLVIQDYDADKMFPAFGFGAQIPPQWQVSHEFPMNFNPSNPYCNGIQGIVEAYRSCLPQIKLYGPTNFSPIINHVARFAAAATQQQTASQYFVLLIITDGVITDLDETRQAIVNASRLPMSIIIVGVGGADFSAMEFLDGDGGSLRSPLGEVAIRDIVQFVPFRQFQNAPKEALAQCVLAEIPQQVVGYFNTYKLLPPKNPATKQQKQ
UniProt Q16630, whole entry, looked up: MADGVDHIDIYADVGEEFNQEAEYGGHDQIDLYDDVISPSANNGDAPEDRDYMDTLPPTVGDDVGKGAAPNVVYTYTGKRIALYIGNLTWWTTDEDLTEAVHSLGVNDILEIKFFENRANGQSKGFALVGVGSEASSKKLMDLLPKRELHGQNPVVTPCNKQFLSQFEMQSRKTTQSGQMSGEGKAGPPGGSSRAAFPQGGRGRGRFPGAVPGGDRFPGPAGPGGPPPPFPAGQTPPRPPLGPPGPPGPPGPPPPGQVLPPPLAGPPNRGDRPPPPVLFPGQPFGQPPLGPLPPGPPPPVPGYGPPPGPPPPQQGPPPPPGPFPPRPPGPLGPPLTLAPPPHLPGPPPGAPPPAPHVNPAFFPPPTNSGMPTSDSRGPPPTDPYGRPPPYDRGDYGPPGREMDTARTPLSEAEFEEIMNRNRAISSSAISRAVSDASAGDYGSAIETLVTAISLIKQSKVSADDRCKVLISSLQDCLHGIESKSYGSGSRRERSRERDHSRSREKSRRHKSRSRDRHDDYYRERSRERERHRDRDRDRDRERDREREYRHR
UniProt O43405: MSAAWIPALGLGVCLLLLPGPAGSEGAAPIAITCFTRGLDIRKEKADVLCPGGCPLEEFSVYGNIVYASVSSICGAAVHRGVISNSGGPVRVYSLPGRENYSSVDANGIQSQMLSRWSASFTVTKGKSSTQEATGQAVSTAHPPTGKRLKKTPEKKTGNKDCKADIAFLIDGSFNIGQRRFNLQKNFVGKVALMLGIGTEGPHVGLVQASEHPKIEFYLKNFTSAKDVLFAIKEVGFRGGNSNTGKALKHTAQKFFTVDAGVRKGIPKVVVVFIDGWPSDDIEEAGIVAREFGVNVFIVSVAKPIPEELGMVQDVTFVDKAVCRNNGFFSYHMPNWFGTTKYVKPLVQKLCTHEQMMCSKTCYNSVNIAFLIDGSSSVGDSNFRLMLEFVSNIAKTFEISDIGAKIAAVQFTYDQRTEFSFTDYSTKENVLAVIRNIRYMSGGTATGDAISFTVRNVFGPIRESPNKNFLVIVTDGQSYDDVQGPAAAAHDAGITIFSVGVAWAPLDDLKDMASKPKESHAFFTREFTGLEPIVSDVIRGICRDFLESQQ
UniProt Q9BR76, whole entry, looked up: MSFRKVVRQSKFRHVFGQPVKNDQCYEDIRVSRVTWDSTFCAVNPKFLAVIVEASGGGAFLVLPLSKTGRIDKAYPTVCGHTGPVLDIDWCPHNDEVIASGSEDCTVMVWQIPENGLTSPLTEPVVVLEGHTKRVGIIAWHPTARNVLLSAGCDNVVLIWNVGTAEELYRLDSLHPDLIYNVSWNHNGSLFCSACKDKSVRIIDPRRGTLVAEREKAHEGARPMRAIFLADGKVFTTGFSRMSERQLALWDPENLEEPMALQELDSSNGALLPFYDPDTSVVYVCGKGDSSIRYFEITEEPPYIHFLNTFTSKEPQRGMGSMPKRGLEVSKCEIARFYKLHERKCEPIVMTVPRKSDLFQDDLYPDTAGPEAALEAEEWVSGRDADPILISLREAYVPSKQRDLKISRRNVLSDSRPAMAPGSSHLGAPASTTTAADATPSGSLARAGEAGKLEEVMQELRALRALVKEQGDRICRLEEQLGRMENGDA
UniProt Q92600, whole entry, looked up: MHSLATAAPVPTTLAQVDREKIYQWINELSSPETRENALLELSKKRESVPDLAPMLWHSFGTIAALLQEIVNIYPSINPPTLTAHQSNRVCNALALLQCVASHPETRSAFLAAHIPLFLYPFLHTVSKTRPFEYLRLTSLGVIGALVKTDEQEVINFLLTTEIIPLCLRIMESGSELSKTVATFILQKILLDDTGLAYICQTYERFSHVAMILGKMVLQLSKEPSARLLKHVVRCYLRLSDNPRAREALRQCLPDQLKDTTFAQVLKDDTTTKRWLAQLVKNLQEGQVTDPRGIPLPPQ
UniProt Q13057: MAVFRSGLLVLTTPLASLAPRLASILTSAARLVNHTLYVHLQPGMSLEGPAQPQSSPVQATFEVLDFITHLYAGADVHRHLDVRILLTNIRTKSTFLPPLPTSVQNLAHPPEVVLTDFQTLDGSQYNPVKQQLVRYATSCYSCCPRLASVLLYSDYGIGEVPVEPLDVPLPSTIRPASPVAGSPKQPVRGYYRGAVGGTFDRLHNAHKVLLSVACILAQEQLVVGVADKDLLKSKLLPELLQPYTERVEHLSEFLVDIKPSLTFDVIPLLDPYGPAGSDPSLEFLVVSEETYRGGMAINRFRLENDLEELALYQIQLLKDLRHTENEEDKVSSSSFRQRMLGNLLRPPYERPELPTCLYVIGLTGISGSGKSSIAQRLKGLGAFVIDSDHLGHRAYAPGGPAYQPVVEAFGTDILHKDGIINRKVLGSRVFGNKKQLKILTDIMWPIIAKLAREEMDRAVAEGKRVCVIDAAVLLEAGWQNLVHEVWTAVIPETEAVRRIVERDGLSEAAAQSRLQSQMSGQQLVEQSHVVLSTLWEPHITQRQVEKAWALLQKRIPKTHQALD
UniProt Q9H0A8, whole entry, looked up: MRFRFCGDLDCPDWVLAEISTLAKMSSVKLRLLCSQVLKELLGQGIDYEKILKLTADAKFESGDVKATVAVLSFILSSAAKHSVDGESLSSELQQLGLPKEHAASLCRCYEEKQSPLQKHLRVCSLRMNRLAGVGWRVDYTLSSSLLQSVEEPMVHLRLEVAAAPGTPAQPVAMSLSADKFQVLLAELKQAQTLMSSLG

How the values were obtained:
Assay in all cases: log2 fold change, soluble protein after heating vs DMSO (PISA); higher = thermal stabilisation; K562 lysate, 10 uM; active = over 0.2 and 3.5 SD of the protein, either way, in both replicates (recomputed)
erlotinib = compound: C#Cc1cccc(Nc2ncnc3cc(OCCOC)c(OCCOC)cc23)c1 [erlotinib]
Procedure, shortened: (§1)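 K562 pellets were dounce-homogenised in PBS pH 7.4 containing 1 mM MgCl2, and the crude extract, at 1 mg/mL protein, was exposed to 10 μM compound for 30 min. Aliquots were heated for 3 min across 48°C-58°C, pooled, brought to 0.5% NP-40 at 4°C and spun at 21,000xg for 90 min, with the supernatant taken as soluble protein. TMTpro 16plex LC-MS/MS with equalised channel sums quantified that protein. Values are log-two fold changes in thermal stability relative to solvent controls, taken from duplicates.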

[1] = compound: C/C(=N\NC(=O)C1=CC(=CC=C1)S(=O)(=O)N2CCOCC2)/C3=C(C=CC(=C3)Cl)O
Procedure, shortened: as §1

[2] = compound: C1=CC(=CC=C1C2=NC3=C(N2)C=C(C=C3)C(=O)N)OC4=CC=C(C=C4)Cl
Procedure, shortened: as §1

[3] = compound: C1=CC2=C(C=CC(=C2)/C=C\3/C(=O)NC(=NCC4=CC=CS4)S3)N=C1
Procedure, shortened: as §1

[4] = compound: C1=CC2=NC=CN=C2C=C1/C=C/3\C(=O)NC(=O)S3
Procedure, shortened: as §1

[5] = compound: C1=CC=C(C=C1)C2=NC(=C(N2)C3=CC=NC=C3)C4=CC(=C(C=C4)Cl)O
Procedure, shortened: as §1

[6] = compound: C1=CC=C2C(=C1)C3=NNC4=CC=CC(=C43)C2=O
Procedure, shortened: as §1

[7] = compound: C1CCN(C1)C(=O)NC2=CC=CC(=C2)NC3=NC=C(C(=N3)NCCC4=CN=CN4)Br
Procedure, shortened: as §1

[8] = compound: C1CN(CCC1(CC2=CC=C(C=C2)Cl)N)C3=NC=NC4=C3C=CN4
Procedure, shortened: as §1

IRAK-1-4 Inhibitor I = compound: C1COCCN1CCN2C3=CC=CC=C3N=C2NC(=O)C4=CC(=CC=C4)[N+](=O)[O-] [IRAK-1-4 Inhibitor I]
Procedure, shortened: as §1

ibrutinib = compound: C=CC(=O)N1CCC[C@@H](n2nc(-c3ccc(Oc4ccccc4)cc3)c3c(N)ncnc32)C1 [ibrutinib]
Procedure, shortened: as §1

[9] = compound: CC(=O)c1cnc2ccc(-c3cc(Cl)c(O)c(Cl)c3)nc2c1N[C@H]1CC[C@H](CN(C)C)CC1
Procedure, shortened: as §1

ralimetinib = compound: CC(C)(C)Cn1c(N)nc2ccc(-c3[nH]c(C(C)(C)C)nc3-c3ccc(F)cc3)nc21 [ralimetinib]
Procedure, shortened: as §1

[10] = compound: CC(C)(O)CC(=O)NCCn1ccc2ncnc(Nc3ccc(Oc4cccc(C(F)(F)F)c4)c(Cl)c3)c21
Procedure, shortened: as §1

[11] = compound: CC(C)C1=C2N=C(C=C(N2N=C1)NCC3=CC=CC=C3)NCCCCCCN
Procedure, shortened: as §1

[12] = compound: CC1=C(C(CC(=O)N1)C2=CC=C(C=C2)C(F)(F)F)C(=O)NC3=C(C=C4C(=C3)C=NN4)F
Procedure, shortened: as §1

[13] = compound: CC1=C(C2=C(C=C1)C(=O)C3=CC=CC=C3N2CCCN)C
Procedure, shortened: as §1

[14] = compound: CC1=C(C=C(C=C1)NC(=O)C2=CC(=CC=C2)C(C)(C)C#N)NC3=CC4=C(C=C3)N=CN(C4=O)C
Procedure, shortened: as §1

[15] = compound: CC1=C(C=C(C=C1)NC(=O)C2=CC(=CC=C2)N(C)C)NC(=O)C3=CC=C(C=C3)O
Procedure, shortened: as §1

[16] = compound: CC1=CC=C(C=C1)SC2=C3C=C(SC3=CN=C2)C(=O)N
Procedure, shortened: as §1

Measured: log2 fold change

CNPY3 (UniProt Q9BT09)
inactive: erlotinib -0.031 | [1] -0.016 | [2] 0.009 | [3] 0.013 | [4] 0.01 | [5] 0.053 | [6] 0.047 | [7] -0.052 | [8] -0.002 | IRAK-1-4 Inhibitor I 0.03 | ibrutinib -0.048 | [9] 0.03 | ralimetinib 0.068 | [10] -0.042 | [11] -0.023 | [12] 0.056 | [13] 0.016 | [14] -0.016 | [15] -0.071 | [16] 0

CNOT8 (UniProt Q9UFF9)
inactive: erlotinib 0.104 | [1] -0.033 | [2] -0.033 | [3] 0 | [4] -0.029 | [5] 0.016 | [6] -0.078 | [7] -0.02 | [8] 0.013 | IRAK-1-4 Inhibitor I -0.018 | ibrutinib -0.006 | [9] -0.01 | ralimetinib 0.013 | [10] 0.033 | [11] -0.038 | [12] 0.002 | [13] -0.012 | [14] 0.022 | [15] -0.001 | [16] 0.03

COPE (UniProt O14579)
inactive: erlotinib 0.045 | [1] 0.11 | [2] 0.018 | [3] 0.056 | [4] 0.029 | [5] -0.012 | [6] -0.005 | [7] -0.005 | [8] 0.03 | IRAK-1-4 Inhibitor I 0.023 | ibrutinib 0.041 | [9] -0.011 | ralimetinib 0.027 | [10] -0.027 | [11] -0.001 | [12] -0.035 | [13] -0.005 | [14] 0.046 | [15] 0.001 | [16] 0.009

COPG2 (UniProt Q9UBF2)
inactive: erlotinib -0.004 | [1] -0.007 | [2] 0.011 | [3] 0 | [4] 0.007 | [5] -0.002 | [6] -0.012 | [7] 0.002 | [8] 0.025 | IRAK-1-4 Inhibitor I 0.014 | ibrutinib 0.009 | [9] -0.003 | ralimetinib -0.004 | [10] -0.005 | [11] -0.006 | [12] 0.008 | [13] -0.007 | [14] -0.002 | [15] -0.002 | [16] 0.006

CORO7 isoform 3 (UniProt P57737)
inactive: erlotinib 0.035 | [1] -0.009 | [2] -0.079 | [3] 0.013 | [4] 0 | [5] 0.016 | [6] -0.016 | [7] 0.009 | [8] 0.026 | IRAK-1-4 Inhibitor I -0.04 | ibrutinib -0.01 | [9] 0.002 | ralimetinib 0.016 | [10] 0.031 | [11] 0.009 | [12] -0.013 | [13] -0.006 | [14] -0.006 | [15] 0.02 | [16] 0.005

COPS8 (UniProt Q99627)
inactive: erlotinib -0.03 | [1] -0.042 | [2] -0.007 | [3] -0.008 | [4] -0.066 | [5] -0.032 | [6] 0.057 | [7] -0.01 | [8] 0.069 | IRAK-1-4 Inhibitor I -0.008 | ibrutinib 0.104 | [9] -0.016 | ralimetinib 0.062 | [10] -0.042 | [11] -0.003 | [12] -0.045 | [13] 0 | [14] 0.04 | [15] 0.019 | [16] -0.001

COLGALT1 (UniProt Q8NBJ5)
inactive: erlotinib 0.006 | [1] 0.009 | [2] -0.005 | [3] 0.017 | [4] 0.018 | [5] 0.001 | [6] -0.033 | [7] 0.027 | [8] -0.001 | IRAK-1-4 Inhibitor I -0.003 | ibrutinib -0.025 | [9] -0.004 | ralimetinib 0.008 | [10] -0.007 | [11] -0.005 | [12] -0.008 | [13] 0.014 | [14] -0.007 | [15] 0.002 | [16] 0.008

CNNM3 (UniProt Q8NE01)
inactive: erlotinib -0.001 | [1] 0.054 | [2] -0.012 | [3] -0.002 | [4] -0.002 | [5] -0.04 | [6] 0.009 | [7] -0.044 | [8] 0.041 | IRAK-1-4 Inhibitor I -0.001 | ibrutinib -0.017 | [9] 0.003 | ralimetinib 0.021 | [10] -0.056 | [11] -0.017 | [12] -0.001 | [13] -0.032 | [14] 0.039 | [15] -0.01 | [16] 0.037

Quoted at random: 2 records from the list.
CORO7 isoform 3 (UniProt P57737)
inactive: erlotinib 0.035 | [1] -0.009 | [2] -0.079 | [3] 0.013 | [4] 0 | [5] 0.016 | [6] -0.016 | [7] 0.009 | [8] 0.026 | IRAK-1-4 Inhibitor I -0.04 | ibrutinib -0.01 | [9] 0.002 | ralimetinib 0.016 | [10] 0.031 | [11] 0.009 | [12] -0.013 | [13] -0.006 | [14] -0.006 | [15] 0.02 | [16] 0.005

COPS8 (UniProt Q99627)
inactive: erlotinib -0.03 | [1] -0.042 | [2] -0.007 | [3] -0.008 | [4] -0.066 | [5] -0.032 | [6] 0.057 | [7] -0.01 | [8] 0.069 | IRAK-1-4 Inhibitor I -0.008 | ibrutinib 0.104 | [9] -0.016 | ralimetinib 0.062 | [10] -0.042 | [11] -0.003 | [12] -0.045 | [13] 0 | [14] 0.04 | [15] 0.019 | [16] -0.001

Next part

CPNE3 (UniProt O75131)
inactive: erlotinib 0.014 | [1] -0.106 | [2] -0.005 | [3] 0.02 | [4] -0.07 | [5] 0.004 | [6] -0.079 | [7] 0.006 | [8] -0.024 | IRAK-1-4 Inhibitor I -0.011 | ibrutinib -0.046 | [9] -0.01 | ralimetinib -0.017 | [10] 0.004 | [11] 0.024 | [12] 0.01 | [13] -0.02 | [14] -0.005 | [15] 0.015 | [16] 0.008

CPSF6 isoform 2 (UniProt Q16630)
inactive: erlotinib 0 | [1] 0 | [2] -0.02 | [3] 0.023 | [4] -0.049 | [5] -0.017 | [6] 0.05 | [7] 0.009 | [8] -0.002 | IRAK-1-4 Inhibitor I -0.037 | ibrutinib 0.055 | [9] 0.006 | ralimetinib -0.001 | [10] 0.001 | [11] 0.013 | [12] 0 | [13] -0.003 | [14] -0.037 | [15] 0.025 | [16] -0.004

COCH (UniProt O43405)
inactive: erlotinib -0.032 | [1] 0.003 | [2] 0.065 | [3] 0.023 | [4] -0.055 | [5] 0.04 | [6] -0.005 | [7] -0.082 | [8] 0.125 | IRAK-1-4 Inhibitor I 0.002 | ibrutinib 0.152 | [9] -0.001 | ralimetinib -0.024 | [10] -0.114 | [11] -0.025 | [12] -0.043 | [13] -0.025 | [14] -0.01 | [15] 0.038 | [16] 0.021

CORO1B (UniProt Q9BR76)
inactive: erlotinib 0.005 | [1] -0.196 | [2] 0.011 | [3] -0.019 | [4] 0.01 | [5] -0.01 | [6] -0.013 | [7] -0.004 | [8] -0.011 | IRAK-1-4 Inhibitor I 0.003 | ibrutinib 0.013 | [9] -0.003 | ralimetinib -0.002 | [10] -0.029 | [11] 0.023 | [12] -0.004 | [13] -0.01 | [14] 0.002 | [15] -0.005 | [16] 0.02

CNOT9 (UniProt Q92600)
inactive: erlotinib 0.034 | [1] -0.02 | [2] 0.013 | [3] 0.048 | [4] 0.012 | [5] 0.001 | [6] -0.038 | [7] -0.029 | [8] 0.039 | IRAK-1-4 Inhibitor I 0.062 | ibrutinib 0.046 | [9] -0.002 | ralimetinib 0.012 | [10] -0.034 | [11] -0.016 | [12] 0.021 | [13] 0.001 | [14] 0.037 | [15] -0.036 | [16] 0.015

COL15A1 (UniProt P39059)
inactive: erlotinib 0.001 | [1] -0.179 | [2] 0.009 | [3] 0.042 | [4] 0.001 | [5] -0.073 | [6] -0.035 | [7] -0.073 | [8] -0.058 | IRAK-1-4 Inhibitor I 0.043 | ibrutinib -0.032 | [9] 0.026 | ralimetinib -0.021 | [10] -0.035 | [11] 0.049 | [12] 0.136 | [13] 0.052 | [14] 0.007 | [15] 0.063 | [16] -0.019

COASY isoform 2 (UniProt Q13057)
inactive: erlotinib 0.006 | [1] -0.049 | [2] -0.044 | [3] -0.007 | [4] 0.022 | [5] -0.018 | [6] -0.05 | [7] -0.019 | [8] 0.024 | IRAK-1-4 Inhibitor I -0.019 | ibrutinib 0.024 | [9] -0.015 | ralimetinib 0.103 | [10] 0.002 | [11] -0.003 | [12] 0.013 | [13] -0.001 | [14] -0.013 | [15] 0.037 | [16] 0.014

COMMD4 (UniProt Q9H0A8)
inactive: erlotinib -0.095 | [1] -0.042 | [2] -0.03 | [3] 0.036 | [4] 0.046 | [5] 0.084 | [6] -0.002 | [7] -0.071 | [8] 0.035 | IRAK-1-4 Inhibitor I -0.029 | ibrutinib 0.032 | [9] 0.001 | ralimetinib 0.018 | [10] 0.05 | [11] -0.001 | [12] 0.049 | [13] -0.051 | [14] -0.022 | [15] 0.021 | [16] 0.032
